Data source: PubChem BioAssay AID652243 (Drosophila RNAi Screening Center, 2013)
The deposit covers about 24,000 reagents; this is a random part of those that have a named target and a result. Of all reagents, 246 (1%) got an active call. 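Plates not normalised; calls are printed but the firefly/Renilla ratio behind them is not deposited; fold cut for lowering reported inconsistently.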 Raw values vary from plate to plate and are shown uncorrected. Names joined by + are all predicted targets of the reagent. The record does not give: the amount of reagent.

- Purpose: 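Fly regulators of androgen-dependent reporter output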 (primary screen)
- Cell system: Drosophila S2R+ cells
- Knock-down reagent: long dsRNA against Drosophila genes
- Timing: 72 h (48 h, then 24 h hormone)
- Conditions: synthetic androgen R1881 at 10 nM for 24 h
- Measurement: 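Per-well raw luminescence of the androgen-driven firefly reporter and of the Renilla control, two replicates each, without normalisation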
- Scale: firefly reporter light: higher = more light from androgen-responsive reporter; Renilla control light: higher = more constitutive control signal (cell number, transfection)
- Active means: 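Across duplicate plates, a knock-down whose log firefly/Renilla ratio shifted a set fold down or up from the GFP/LacZ control mean was a hit; the downward cut appears as both 1.5 and 3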
- Meaning of the calls: active = hit: reporter lowered or raised; inactive = no hit

The first 3 entries, ahead of the listing:
CG18563 [DRSC02676] | firefly reporter light, replicate 1 = 1.21e5; firefly reporter light, replicate 2 = 1.34e5; Renilla control light, replicate 1 = 1.55e6; Renilla control light, replicate 2 = 1.90e6; outcome = inactive
Nca (Neurocalcin) [DRSC11233] | firefly reporter light, replicate 1 = 2.59e5; firefly reporter light, replicate 2 = 2.68e5; Renilla control light, replicate 1 = 2.51e6; Renilla control light, replicate 2 = 2.43e6; outcome = inactive
dare + CG30033 [DRSC22908] | firefly reporter light, replicate 1 = 7.34e5; firefly reporter light, replicate 2 = 1.58e6; Renilla control light, replicate 1 = 3.03e5; Renilla control light, replicate 2 = 4.13e5; outcome = inactive

The list itself, repeating the preview:
CG18563 [DRSC02676] | firefly reporter light, replicate 1 = 1.21e5; firefly reporter light, replicate 2 = 1.34e5; Renilla control light, replicate 1 = 1.55e6; Renilla control light, replicate 2 = 1.90e6; outcome = inactive
Nca (Neurocalcin) [DRSC11233] | firefly reporter light, replicate 1 = 2.59e5; firefly reporter light, replicate 2 = 2.68e5; Renilla control light, replicate 1 = 2.51e6; Renilla control light, replicate 2 = 2.43e6; outcome = inactive
dare + CG30033 [DRSC22908] | firefly reporter light, replicate 1 = 7.34e5; firefly reporter light, replicate 2 = 1.58e6; Renilla control light, replicate 1 = 3.03e5; Renilla control light, replicate 2 = 4.13e5; outcome = inactive
Srr (Serine racemase) [DRSC16382] | firefly reporter light, replicate 1 = 1.06e5; firefly reporter light, replicate 2 = 1.34e5; Renilla control light, replicate 1 = 1.73e6; Renilla control light, replicate 2 = 2.37e6; outcome = inactive
Srr (Serine racemase) [DRSC27485] | firefly reporter light, replicate 1 = 3.62e5; firefly reporter light, replicate 2 = 2.32e5; Renilla control light, replicate 1 = 6.25e5; Renilla control light, replicate 2 = 9.34e5; outcome = inactive
Naus (Nausicaa) [DRSC06011] | firefly reporter light, replicate 1 = 6.14e5; firefly reporter light, replicate 2 = 7.19e5; Renilla control light, replicate 1 = 1.39e6; Renilla control light, replicate 2 = 1.08e6; outcome = inactive
Naus (Nausicaa) [DRSC06469] | firefly reporter light, replicate 1 = 18915; firefly reporter light, replicate 2 = 21214; Renilla control light, replicate 1 = 7.81e5; Renilla control light, replicate 2 = 7.81e5; outcome = active
Naus (Nausicaa) [DRSC23606] | firefly reporter light, replicate 1 = 8.52e5; firefly reporter light, replicate 2 = 1.07e6; Renilla control light, replicate 1 = 1.05e6; Renilla control light, replicate 2 = 1.16e6; outcome = inactive
pad (poils au dos) [DRSC14227] | firefly reporter light, replicate 1 = 1.54e5; firefly reporter light, replicate 2 = 89578; Renilla control light, replicate 1 = 2.71e6; Renilla control light, replicate 2 = 2.70e6; outcome = inactive
pad (poils au dos) [DRSC26048] | firefly reporter light, replicate 1 = 1.94e5; firefly reporter light, replicate 2 = 2.16e5; Renilla control light, replicate 1 = 8.35e5; Renilla control light, replicate 2 = 5.49e5; outcome = inactive
Sidpn (similar to Deadpan) [DRSC02056] | firefly reporter light, replicate 1 = 7.30e5; firefly reporter light, replicate 2 = 8.49e5; Renilla control light, replicate 1 = 2.17e6; Renilla control light, replicate 2 = 2.59e6; outcome = inactive
Dyrk2 (Dual-specificity tyrosine phosphorylation-regulated kinase 2) [DRSC03610] | firefly reporter light, replicate 1 = 8.37e5; firefly reporter light, replicate 2 = 9.18e5; Renilla control light, replicate 1 = 1.63e6; Renilla control light, replicate 2 = 1.73e6; outcome = inactive
Dyrk2 (Dual-specificity tyrosine phosphorylation-regulated kinase 2) [DRSC29029] | firefly reporter light, replicate 1 = 2.06e5; firefly reporter light, replicate 2 = 2.43e5; Renilla control light, replicate 1 = 6.02e5; Renilla control light, replicate 2 = 3.80e5; outcome = inactive
Dyrk2 (Dual-specificity tyrosine phosphorylation-regulated kinase 2) [DRSC36717] | outcome = inactive
Usp30 (Ubiquitin specific protease 30) [DRSC18265] | firefly reporter light, replicate 1 = 2.84e5; firefly reporter light, replicate 2 = 2.81e5; Renilla control light, replicate 1 = 2.14e6; Renilla control light, replicate 2 = 2.75e6; outcome = inactive
Usp30 (Ubiquitin specific protease 30) [DRSC29538] | firefly reporter light, replicate 1 = 5.24e5; firefly reporter light, replicate 2 = 5.66e5; Renilla control light, replicate 1 = 8.48e5; Renilla control light, replicate 2 = 8.48e5; outcome = inactive
CG15027 [DRSC19608] | firefly reporter light, replicate 1 = 3.39e5; firefly reporter light, replicate 2 = 3.92e5; Renilla control light, replicate 1 = 3.00e6; Renilla control light, replicate 2 = 3.39e6; outcome = inactive
rhi (rhino) [DRSC05996] | firefly reporter light, replicate 1 = 60075; firefly reporter light, replicate 2 = 64836; Renilla control light, replicate 1 = 1.24e6; Renilla control light, replicate 2 = 1.24e6; outcome = inactive
CAH16 (Carbonic anhydrase 16) [DRSC15371] | firefly reporter light, replicate 1 = 1.93e5; firefly reporter light, replicate 2 = 1.64e5; Renilla control light, replicate 1 = 1.98e6; Renilla control light, replicate 2 = 2.13e6; outcome = inactive
CAH16 (Carbonic anhydrase 16) [DRSC27986] | firefly reporter light, replicate 1 = 6.64e5; firefly reporter light, replicate 2 = 5.37e5; Renilla control light, replicate 1 = 1.94e6; Renilla control light, replicate 2 = 1.63e6; outcome = inactive
CG13202 [DRSC06326] | firefly reporter light, replicate 1 = 4.47e5; firefly reporter light, replicate 2 = 2.52e5; Renilla control light, replicate 1 = 2.28e6; Renilla control light, replicate 2 = 2.03e6; outcome = inactive
Jon99Fii + Jon99Cii + Jon99Ciii + 1 more [DRSC15298] | firefly reporter light, replicate 1 = 1.61e5; firefly reporter light, replicate 2 = 1.87e5; Renilla control light, replicate 1 = 2.36e6; Renilla control light, replicate 2 = 3.37e6; outcome = inactive
Ugt35A1 (UDP-glycosyltransferase family 35 member A1) [DRSC16892] | firefly reporter light, replicate 1 = 46602; firefly reporter light, replicate 2 = 48040; Renilla control light, replicate 1 = 3.22e5; Renilla control light, replicate 2 = 4.46e5; outcome = inactive
Ugt35A1 (UDP-glycosyltransferase family 35 member A1) [DRSC25438] | firefly reporter light, replicate 1 = 5.81e5; firefly reporter light, replicate 2 = 3.77e5; Renilla control light, replicate 1 = 1.76e6; Renilla control light, replicate 2 = 6.12e5; outcome = inactive
wech [DRSC06606] | firefly reporter light, replicate 1 = 1.05e6; firefly reporter light, replicate 2 = 9.97e5; Renilla control light, replicate 1 = 2.03e6; Renilla control light, replicate 2 = 2.17e6; outcome = inactive
Trmt6 (tRNA methyltransferase 6 non-catalytic subunit) [DRSC03272] | firefly reporter light, replicate 1 = 1.85e5; firefly reporter light, replicate 2 = 2.10e5; Renilla control light, replicate 1 = 1.92e6; Renilla control light, replicate 2 = 2.50e6; outcome = inactive
Chd64 [DRSC08649] | firefly reporter light, replicate 1 = 1.19e6; firefly reporter light, replicate 2 = 9.06e5; Renilla control light, replicate 1 = 1.05e6; Renilla control light, replicate 2 = 8.12e5; outcome = inactive
Chd64 [DRSC28823] | firefly reporter light, replicate 1 = 3.92e5; firefly reporter light, replicate 2 = 3.19e5; Renilla control light, replicate 1 = 1.37e6; Renilla control light, replicate 2 = 1.45e6; outcome = inactive
